Consider 1 molecule from article PMC5005315.

Results are given in words; binding and its absence hold for the method and conditions named. Binding calls can cover weak binding; strength is not graded here. Tags and fused reporters may be left off the sequences shown.

The target of this assay is cytoplasmic soluble domain of PorY (PorYC) fused to the T25 domain (Porphyromonas gingivalis ATCC33277) (UniProt B2RMC4). Description: two-hybrid.

B1: PorX fused to the T18 domain of the Bordetella adenylate cyclase (protein, UniProt B2RJJ3 1-518)
chain: MEKNMRPYTVLWADDEIDLLKPHILFLEQKGYQVTPVLSGNDAIEALQNNDFDIVFLDENMPGIGGLDALQKIKELKPYTPVVMITKSEEEHIMTQAIGGKIADYLIKPVNPNQLLLSLKKNLQQHSIISETTNTNYRQEFVQLGAQMSGKLSFEEWKELYRRIVFWEIELEQADRQMGELLEMQKQEANRLFARFVTQNYREWIAKPDTRPTMSPDLFKQKVFPLLDNGEKVFFILIDNFRQDQWESVKSMLSEFYTFEEDMYLSILPTATQYARNAIFSGLMPLQIEKMFPDLWVDEESEEGKNLNEEPMIRTLIERYRKHYSFSYNKVYETKFGERLLGQIRSLSQNQLNVIVLNFVDMMSHARTDSKMIRELASNEAAYRSLTKSWFKHSTTYNLFRSIAEMGYKVVLTTDHGTIQVKNPVKVIGDRSTNTNLRYKIGKNLDYNPKEVFEIKDPASVGLPHNNLSDKFIFTKEDDFFAYPNNYNYYVQYYRNTFQHGGISLEEMLVPVITMQPK
As for B1, the binding entry is listed as “binds”.
